Data from publication PMC9454482.
Results are given in words; binding and its absence hold for the method and conditions named. In cells and extracts the contact can be indirect. Here binding means that the protein was enriched with, or labelled near, the bait; the list need not be complete. Values belong to the binder of their own block, whether it stands above or below them.

By UniProt entry, the sequences of proteins in these tests, tags left out.
UniProt Q9CQW9: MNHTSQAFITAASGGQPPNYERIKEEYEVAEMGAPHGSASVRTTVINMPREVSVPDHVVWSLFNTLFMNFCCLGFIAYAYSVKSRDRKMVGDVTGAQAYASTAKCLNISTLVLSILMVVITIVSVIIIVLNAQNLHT

Target: Interferon-induced transmembrane protein 3 (Ifitm3), mouse (mouse (endogenous in BM-DCs)) (UniProt Q9CQW9)
Experiment: affinity purification with mass spectrometry; SILAC-IP: anti-fragilis (Ifitm3) antibody on protein A/G agarose beads, lysates of wt ('Medium') against Ifitm3-/- ('Heavy') BM-DCs, mock infected or infected with MCMV (MOI 1) for 3 h; Pierce IP lysis buffer

binding: binds
B2: Rtn3 (protein, UniProt Q9ES97 1-964)
chain: MAESSAATQSPSVSSSSSGAEPSALGGGGGSPGACPALGAKSCGSSCADSFVSSSSSQPVSIFSTSQAGLSSLCSDEPPSKSMTSSFLSSSEIHNPDPTTPLGEKSETLGSQFVLAKGKDPLVLLDKKKLDSPQGTNKDRVDAPVSLATGIPCSHPSIPDSFPEQPAFLSKEIGPAEEWVVKDQEPKNPNKVPDGEDRSALDFGQSKAEHICTYSLSPSELPVASVEKDSPESPFEVIIDKATFDREFKDLYKENPNDLGGWAAHGDRESPADLLEMNDKLFPLRNKEAGRYPSSVLLGRQFSHTTAALEEVSRCVNDMHNFTNEILTWDLDPQAKQQANKTSCTTESTGLDRSELRSEIPVINLKTNPQQKMPVCSFNGSTPITKSTGDWTEAFTEGKPVRDYLSSTKEAGGNGVPGSSQLHSELPGSMPEKWVSGSGAATVEVTLPNLRGAWPNSVMGEVTEVDSSGESDDTVIEDITEKPDSLPSAAAKTSEREIKETPSRETVRSEMCENSEQPQAQPETPTQKSLEGEVASQVPNTLNEVTPEKLDMTNNPKVCSAAPPSVLNETGFSLTVPASAKLESLLGKYVEDTDGSSPEDLMAVLTGAEEKGIVDKEEGDVLEAVLEKIADFKNTLPVELLHESELSGSETKNIKSKYSEDSRETTGGAPTMSPDLEQEQLTIRAIKELGERQAEKVQDEGISSGGKLKQTFAPQSGPQSSSDILEHTDVKTGSDLGIPKNPTIIKNTRIDSISSLTKTEMVNKNVLARLLSDFPVHDLIFWRDVKKTGFVFGTTLIMLLSLAAFSVISVVSYLILALLSVTISFRVYKSVIQAVQKSEEGHPFKAYLDVDITLSSEAFHNYMNAAMVHVNKALKLIIRLFLVEDLVDSLKLAVFMWLMTYVGAVFNGITLLILAELLVFSVPIVYEKYKTQIDHYVGIARDQTKSIVEKIQAKLPGIAKKKAE

binding: binds
B3: PRA1 family protein 3 (Arl6ip5, Praf3) (protein, UniProt Q8R5J9 1-188)
chain: MDVNLAPLRAWDDFFPGSDRFARPDFRDISKWNNRVVSNLLYYQTNYLVVAAMMISVVGFLSPFNMILGGVIVVLVFMGFVWAAHNKDILRRMKKQYPTAFVMVVMLASYFLISMFGGVMVFVFGITLPLLLMFIHASLRLRNLKNKLENKMEGIGLKKTPMGIILDALEQQEDNINKFADYISKARE

Second part, the binder before the results:

B1: Nogo-B (reticulon 4 isoform), mouse (protein, UniProt Q99P72-5 1-356)
chain: MEDIDQSSLVSSSADSPPRPPPAFKYQFVTEPEDEEDEEDEEEEEDDEDLEELEVLERKPAAGLSAAPVPPAAAPLLDFSSDSVPPAPRGPLPAAPPTAPERQPSWERSPAASAPSLPPAAAVLPSKLPEDDEPPARPPAPAGASPLAEPAAPPSTPAAPKRRGSGSVVVDLLYWRDIKKTGVVFGASLFLLLSLTVFSIVSVTAYIALALLSVTISFRIYKGVIQAIQKSDEGHPFRAYLESEVAISEELVQKYSNSALGHVNSTIKELRRLFLVDDLVDSLKFAVLMWVFTYVGALFNGLTLLILALISLFSIPVIYERHQAQIDHYLGLANKSVKDAMAKIQAKIPGLKRKAE
binding: binds

B4: Ifitm2 (protein, UniProt Q99J93 1-144)
chain: MSHNSQAFLSTNAGLPPSYETIKEEYGVTELGEPSNSAVVRTTVINMPREVSVPDHVVWSLFNTLFFNACCLGFVAYAYSVKSRDRKMVGDVVGAQAYASTAKCLNISSLIFSILMVIICIIIFSTTSVVVFQSFAQRTPHSGF
binding: binds

B5: Ifitm1 (protein, UniProt Q9D103 1-106)
chain: MPKEQQEVVVLGSPHISTSATATTINMPEISTPDHVVWSLFNTLFMNFCCLGFVAYAYSVKSRDRKMVGDTTGAQAFASTAKCLNISSLFFTILTAIVVIVVCAIR
binding: binds
